The text below walks through data of the supplement of paper PMC10849652.

Chains of the proteins cited; added tags and fusions are not shown. Lines headed by an entry give the natural chain unless they say otherwise; changes in a name come on top.
UniProt Q7Z3U7: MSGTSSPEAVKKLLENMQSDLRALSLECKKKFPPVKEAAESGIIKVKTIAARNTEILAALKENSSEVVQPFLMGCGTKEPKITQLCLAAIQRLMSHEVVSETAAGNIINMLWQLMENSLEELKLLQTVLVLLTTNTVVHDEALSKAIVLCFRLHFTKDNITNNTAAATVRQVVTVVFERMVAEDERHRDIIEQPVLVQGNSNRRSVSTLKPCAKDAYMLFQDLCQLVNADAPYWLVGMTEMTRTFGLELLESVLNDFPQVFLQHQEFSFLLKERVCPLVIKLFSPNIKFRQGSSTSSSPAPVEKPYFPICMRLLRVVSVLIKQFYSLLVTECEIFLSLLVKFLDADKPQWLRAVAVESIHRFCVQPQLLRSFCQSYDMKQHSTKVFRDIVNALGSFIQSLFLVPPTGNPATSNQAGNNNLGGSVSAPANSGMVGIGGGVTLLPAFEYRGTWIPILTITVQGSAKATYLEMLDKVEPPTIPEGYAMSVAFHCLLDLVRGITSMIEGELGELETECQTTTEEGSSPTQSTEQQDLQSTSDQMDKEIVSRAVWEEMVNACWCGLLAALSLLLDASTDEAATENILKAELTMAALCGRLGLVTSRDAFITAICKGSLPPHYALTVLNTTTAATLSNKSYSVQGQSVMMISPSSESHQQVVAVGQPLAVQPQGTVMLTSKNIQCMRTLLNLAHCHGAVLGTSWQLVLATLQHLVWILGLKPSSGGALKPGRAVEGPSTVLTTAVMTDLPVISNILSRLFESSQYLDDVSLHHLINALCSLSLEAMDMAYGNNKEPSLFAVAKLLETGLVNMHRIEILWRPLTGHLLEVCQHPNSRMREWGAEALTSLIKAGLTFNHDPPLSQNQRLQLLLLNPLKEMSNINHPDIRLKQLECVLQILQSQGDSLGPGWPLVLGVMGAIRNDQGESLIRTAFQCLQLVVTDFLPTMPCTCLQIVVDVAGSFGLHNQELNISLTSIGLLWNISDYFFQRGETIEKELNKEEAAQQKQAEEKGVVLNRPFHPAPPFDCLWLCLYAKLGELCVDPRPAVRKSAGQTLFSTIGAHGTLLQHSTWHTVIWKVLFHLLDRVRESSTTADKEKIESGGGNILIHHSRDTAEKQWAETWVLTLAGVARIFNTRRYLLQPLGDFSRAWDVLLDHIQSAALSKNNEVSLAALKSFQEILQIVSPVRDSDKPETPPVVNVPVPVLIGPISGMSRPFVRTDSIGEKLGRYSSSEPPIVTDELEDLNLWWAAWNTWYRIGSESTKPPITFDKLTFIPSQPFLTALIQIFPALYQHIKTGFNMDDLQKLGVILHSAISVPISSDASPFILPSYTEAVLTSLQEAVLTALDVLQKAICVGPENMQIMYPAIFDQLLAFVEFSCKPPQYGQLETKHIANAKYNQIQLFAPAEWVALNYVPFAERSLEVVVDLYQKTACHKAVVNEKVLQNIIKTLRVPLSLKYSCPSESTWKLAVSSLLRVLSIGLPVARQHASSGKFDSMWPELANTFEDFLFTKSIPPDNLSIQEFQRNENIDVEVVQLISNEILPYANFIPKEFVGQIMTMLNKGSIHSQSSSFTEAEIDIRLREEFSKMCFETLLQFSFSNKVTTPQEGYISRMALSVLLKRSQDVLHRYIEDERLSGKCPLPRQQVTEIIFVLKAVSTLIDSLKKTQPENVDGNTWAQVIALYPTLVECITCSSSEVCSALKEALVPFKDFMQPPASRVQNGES
UniProt Q9UBU8, whole entry, looked up: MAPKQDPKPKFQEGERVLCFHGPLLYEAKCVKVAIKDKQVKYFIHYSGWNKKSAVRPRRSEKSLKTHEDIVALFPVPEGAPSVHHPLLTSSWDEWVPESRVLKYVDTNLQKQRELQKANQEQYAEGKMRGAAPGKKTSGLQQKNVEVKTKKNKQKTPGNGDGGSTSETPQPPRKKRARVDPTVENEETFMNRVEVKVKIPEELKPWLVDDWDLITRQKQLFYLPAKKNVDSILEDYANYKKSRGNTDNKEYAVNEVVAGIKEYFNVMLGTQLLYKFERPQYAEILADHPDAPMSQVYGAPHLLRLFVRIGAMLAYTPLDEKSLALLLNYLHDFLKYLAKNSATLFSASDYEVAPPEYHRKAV
UniProt O95563: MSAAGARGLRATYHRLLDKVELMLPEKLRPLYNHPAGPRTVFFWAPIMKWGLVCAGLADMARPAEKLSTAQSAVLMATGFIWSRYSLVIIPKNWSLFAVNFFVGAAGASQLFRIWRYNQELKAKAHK
UniProt Q9NXC5: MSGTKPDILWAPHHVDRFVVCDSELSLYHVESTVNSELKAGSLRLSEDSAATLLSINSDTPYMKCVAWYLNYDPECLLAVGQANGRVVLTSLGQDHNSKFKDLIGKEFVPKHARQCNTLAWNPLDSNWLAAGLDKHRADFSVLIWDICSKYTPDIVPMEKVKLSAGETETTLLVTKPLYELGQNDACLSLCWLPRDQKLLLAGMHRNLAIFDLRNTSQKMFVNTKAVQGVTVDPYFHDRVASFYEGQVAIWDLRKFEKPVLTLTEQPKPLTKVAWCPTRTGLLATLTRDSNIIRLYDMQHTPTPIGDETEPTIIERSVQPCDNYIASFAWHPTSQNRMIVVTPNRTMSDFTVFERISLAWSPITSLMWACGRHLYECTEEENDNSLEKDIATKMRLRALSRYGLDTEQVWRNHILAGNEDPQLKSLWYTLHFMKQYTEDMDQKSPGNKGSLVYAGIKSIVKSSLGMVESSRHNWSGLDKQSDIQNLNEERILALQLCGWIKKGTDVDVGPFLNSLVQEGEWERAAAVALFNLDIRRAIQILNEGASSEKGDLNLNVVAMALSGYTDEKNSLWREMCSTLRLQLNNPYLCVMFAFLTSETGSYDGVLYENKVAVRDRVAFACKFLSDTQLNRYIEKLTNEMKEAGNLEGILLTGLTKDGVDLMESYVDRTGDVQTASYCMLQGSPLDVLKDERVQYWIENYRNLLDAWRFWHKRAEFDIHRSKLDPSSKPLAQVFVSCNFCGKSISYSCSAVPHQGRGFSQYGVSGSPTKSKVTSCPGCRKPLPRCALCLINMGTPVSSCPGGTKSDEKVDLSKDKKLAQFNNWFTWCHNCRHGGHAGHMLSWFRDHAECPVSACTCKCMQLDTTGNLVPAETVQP
UniProt Q9H000: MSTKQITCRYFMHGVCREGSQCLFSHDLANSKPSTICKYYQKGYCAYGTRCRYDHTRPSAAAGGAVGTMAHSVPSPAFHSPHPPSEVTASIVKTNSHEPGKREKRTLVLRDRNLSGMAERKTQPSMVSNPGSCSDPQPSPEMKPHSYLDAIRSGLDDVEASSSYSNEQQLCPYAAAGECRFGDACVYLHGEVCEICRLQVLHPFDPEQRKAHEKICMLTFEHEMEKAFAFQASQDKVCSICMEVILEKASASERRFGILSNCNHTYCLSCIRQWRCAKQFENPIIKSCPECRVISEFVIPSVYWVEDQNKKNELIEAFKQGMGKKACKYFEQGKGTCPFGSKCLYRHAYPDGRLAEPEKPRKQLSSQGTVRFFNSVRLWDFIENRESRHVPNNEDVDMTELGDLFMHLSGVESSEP
UniProt Q96EY8: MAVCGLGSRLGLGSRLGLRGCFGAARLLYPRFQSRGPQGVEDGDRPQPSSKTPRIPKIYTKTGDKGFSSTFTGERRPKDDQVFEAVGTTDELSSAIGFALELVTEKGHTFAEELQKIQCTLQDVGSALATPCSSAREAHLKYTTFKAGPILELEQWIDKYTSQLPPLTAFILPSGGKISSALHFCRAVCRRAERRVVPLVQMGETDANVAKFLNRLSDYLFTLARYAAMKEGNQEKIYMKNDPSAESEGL
UniProt Q9HC36: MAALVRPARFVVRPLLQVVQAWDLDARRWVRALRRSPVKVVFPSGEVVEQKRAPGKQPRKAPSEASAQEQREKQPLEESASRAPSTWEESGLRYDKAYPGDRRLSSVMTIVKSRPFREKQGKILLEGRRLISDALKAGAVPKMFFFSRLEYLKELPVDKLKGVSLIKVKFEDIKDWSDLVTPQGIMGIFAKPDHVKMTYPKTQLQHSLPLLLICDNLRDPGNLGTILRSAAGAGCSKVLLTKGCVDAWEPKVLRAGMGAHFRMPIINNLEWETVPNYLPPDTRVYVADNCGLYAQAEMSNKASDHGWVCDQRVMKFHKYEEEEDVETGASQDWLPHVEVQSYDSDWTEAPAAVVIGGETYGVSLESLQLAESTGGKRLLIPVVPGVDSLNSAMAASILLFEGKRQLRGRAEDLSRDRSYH
UniProt Q9HAP2: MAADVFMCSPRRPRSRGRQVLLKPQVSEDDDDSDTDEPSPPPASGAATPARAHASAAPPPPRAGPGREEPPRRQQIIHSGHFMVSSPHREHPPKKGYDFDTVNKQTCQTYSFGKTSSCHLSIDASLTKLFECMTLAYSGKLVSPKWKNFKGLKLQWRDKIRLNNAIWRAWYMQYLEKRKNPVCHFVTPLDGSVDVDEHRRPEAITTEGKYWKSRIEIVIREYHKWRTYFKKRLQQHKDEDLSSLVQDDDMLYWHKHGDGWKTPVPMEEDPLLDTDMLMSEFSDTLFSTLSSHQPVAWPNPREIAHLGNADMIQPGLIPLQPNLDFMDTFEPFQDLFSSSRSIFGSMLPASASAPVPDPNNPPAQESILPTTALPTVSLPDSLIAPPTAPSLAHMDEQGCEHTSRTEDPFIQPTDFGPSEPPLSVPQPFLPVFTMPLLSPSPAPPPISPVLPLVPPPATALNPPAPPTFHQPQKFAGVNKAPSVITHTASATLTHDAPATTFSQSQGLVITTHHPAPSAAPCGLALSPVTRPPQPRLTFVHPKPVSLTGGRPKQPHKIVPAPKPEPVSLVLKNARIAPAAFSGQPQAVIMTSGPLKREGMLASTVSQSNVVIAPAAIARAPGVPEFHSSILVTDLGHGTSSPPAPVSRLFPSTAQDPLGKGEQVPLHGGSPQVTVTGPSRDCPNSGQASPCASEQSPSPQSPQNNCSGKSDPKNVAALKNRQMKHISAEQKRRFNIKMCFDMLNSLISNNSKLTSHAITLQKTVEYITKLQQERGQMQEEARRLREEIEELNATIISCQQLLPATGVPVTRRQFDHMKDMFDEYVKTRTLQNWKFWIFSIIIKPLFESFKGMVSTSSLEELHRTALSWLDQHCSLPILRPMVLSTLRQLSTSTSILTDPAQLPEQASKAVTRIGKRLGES
UniProt Q9UNW1: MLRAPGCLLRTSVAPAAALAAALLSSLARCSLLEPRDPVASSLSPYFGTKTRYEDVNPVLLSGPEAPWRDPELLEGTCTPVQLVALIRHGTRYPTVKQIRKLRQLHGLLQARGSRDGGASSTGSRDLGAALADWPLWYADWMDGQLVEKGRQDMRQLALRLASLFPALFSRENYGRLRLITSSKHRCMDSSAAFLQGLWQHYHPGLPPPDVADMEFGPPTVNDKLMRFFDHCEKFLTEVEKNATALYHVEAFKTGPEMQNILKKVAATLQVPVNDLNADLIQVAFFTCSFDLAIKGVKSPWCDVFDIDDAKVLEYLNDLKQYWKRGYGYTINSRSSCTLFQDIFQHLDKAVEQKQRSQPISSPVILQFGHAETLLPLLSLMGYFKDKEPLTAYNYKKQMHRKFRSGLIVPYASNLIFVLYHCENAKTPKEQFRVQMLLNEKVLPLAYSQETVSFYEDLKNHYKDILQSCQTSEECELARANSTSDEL
UniProt Q9HCE1: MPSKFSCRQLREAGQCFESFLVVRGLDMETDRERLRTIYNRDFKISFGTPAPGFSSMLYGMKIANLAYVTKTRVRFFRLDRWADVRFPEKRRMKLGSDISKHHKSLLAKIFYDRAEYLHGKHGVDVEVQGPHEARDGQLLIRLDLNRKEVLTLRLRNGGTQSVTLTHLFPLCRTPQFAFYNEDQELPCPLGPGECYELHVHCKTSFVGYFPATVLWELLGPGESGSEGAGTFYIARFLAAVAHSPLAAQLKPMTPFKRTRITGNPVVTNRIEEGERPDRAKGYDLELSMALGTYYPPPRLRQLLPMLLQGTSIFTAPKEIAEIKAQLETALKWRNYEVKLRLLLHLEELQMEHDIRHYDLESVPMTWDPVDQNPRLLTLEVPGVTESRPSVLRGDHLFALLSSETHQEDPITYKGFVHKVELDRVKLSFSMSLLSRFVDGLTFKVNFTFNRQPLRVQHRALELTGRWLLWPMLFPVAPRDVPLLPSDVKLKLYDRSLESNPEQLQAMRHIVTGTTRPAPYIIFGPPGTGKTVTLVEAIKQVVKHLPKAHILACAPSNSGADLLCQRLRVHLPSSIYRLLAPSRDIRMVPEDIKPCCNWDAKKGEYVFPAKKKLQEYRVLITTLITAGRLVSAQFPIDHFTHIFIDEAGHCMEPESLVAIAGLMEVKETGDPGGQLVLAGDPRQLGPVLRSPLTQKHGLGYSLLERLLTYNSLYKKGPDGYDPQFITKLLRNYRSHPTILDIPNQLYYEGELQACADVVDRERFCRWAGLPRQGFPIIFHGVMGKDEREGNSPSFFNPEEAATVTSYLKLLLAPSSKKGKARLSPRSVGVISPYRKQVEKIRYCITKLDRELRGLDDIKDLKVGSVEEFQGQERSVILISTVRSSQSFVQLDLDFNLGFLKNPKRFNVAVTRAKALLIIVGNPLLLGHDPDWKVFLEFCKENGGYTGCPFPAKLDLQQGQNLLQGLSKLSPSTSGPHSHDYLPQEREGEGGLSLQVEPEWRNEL

The other results are listed elsewhere or left out.

Compound in one assay: CC(C)C1=C2N=C(C=C(N2N=C1)NCC3=CC=CC=C3)NCCCCCCN
In words: log2 fold change, soluble protein after heating vs DMSO (PISA); higher = thermal stabilisation; K562 lysate, 10 uM; active = over 0.2 and 3.5 SD of the protein, either way, in both replicates (recomputed). In outline: (§1)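 Values give the log-two fold change in thermal stability against solvent controls, from duplicates. Crude K562 extract at 1 mg/mL protein, made by dounce homogenisation in PBS pH 7.4 with 1 mM MgCl2, was treated with 10 μM compound for 30 min. After 3 min heating across 48°C-58°C, aliquots were pooled, adjusted to 0.5% NP-40 at 4°C and centrifuged at 21,000xg for 90 min. The supernatant was measured by TMTpro 16plex LC-MS/MS with channel sums equalised.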
Regarding MON2 isoform 5 (UniProt Q7Z3U7), the log2 fold change was inactive: -0.02.

Take MORF4L1 isoform 2 (UniProt Q9UBU8): the log2 fold change is inactive: 0.019.

Take MPC2 (UniProt O95563): the log2 fold change is inactive: 0.02.

As for MIOS (UniProt Q9NXC5), the log2 fold change was inactive: 0.006.

For MKRN2 (UniProt Q9H000), the log2 fold change is inactive: 0.041.

Consider MMUT (UniProt P22033), for which the log2 fold change was inactive: -0.008.

MORC2 (UniProt Q9Y6X9): the log2 fold change was inactive: -0.039.

Regarding MMAB (UniProt Q96EY8), the log2 fold change was inactive: -0.023.

Take MRPL19 (UniProt P49406): the log2 fold change was inactive: 0.029.

Consider MRM3 (UniProt Q9HC36), for which the log2 fold change is inactive: -0.035.

Take MORF4L2 (UniProt Q15014): the log2 fold change was inactive: 0.004.

Consider MLXIP (UniProt Q9HAP2), for which the log2 fold change was inactive: 0.028.

In the case of MGST3 (UniProt O14880), the log2 fold change was inactive: -0.009.

As for MINPP1 (UniProt Q9UNW1), the log2 fold change is inactive: -0.015.

Turning to MOV10 (UniProt Q9HCE1), the log2 fold change is inactive: -0.008.

Compound in a further assay: CC1=C(C(CC(=O)N1)C2=CC=C(C=C2)C(F)(F)F)C(=O)NC3=C(C=C4C(=C3)C=NN4)F
The description is as above. In outline: as §1
Regarding MGST1 (UniProt P10620), the log2 fold change is inactive: 0.002.

Take MRI1 (UniProt Q9BV20): the log2 fold change was inactive: 0.002.

MOB4 (UniProt Q9Y3A3): the log2 fold change was inactive: -0.013.

MKNK1 (UniProt Q9BUB5): the log2 fold change was inactive: -0.018.

As for MIF4GD isoform 3 (UniProt A9UHW6), the log2 fold change is inactive: -0.002.

As to MRPL1 (UniProt Q9BYD6), the log2 fold change is inactive: -0.035.

For the target MLX (UniProt Q9UH92), the log2 fold change is inactive: -0.02.

As to MPI (UniProt P34949), the log2 fold change is inactive: -0.004.

With MRGBP (UniProt Q9NV56), the log2 fold change is inactive: 0.194.

On to MMTAG2 (UniProt Q9BU76), for which the log2 fold change is inactive: -0.06.

Take MPZL1 (UniProt O95297): the log2 fold change is inactive: -0.006.

Take MRPL23 (UniProt Q16540): the log2 fold change is inactive: 0.017.

Take MPST isoform 2 (UniProt P25325): the log2 fold change was inactive: -0.019.

Regarding MRPL15 (UniProt Q9P015), the log2 fold change is inactive: -0.007.

In the case of MICOS10 (UniProt Q5TGZ0), the log2 fold change was inactive: -0.11.

Turning to MIA2 (UniProt Q96PC5), the log2 fold change was inactive: 0.086.

As to MKI67 (UniProt P46013), the log2 fold change was inactive: 0.029.

For the target MKRN1 (UniProt Q9UHC7), the log2 fold change was inactive: -0.093.

Take MRPL14 (UniProt Q6P1L8): the log2 fold change is inactive: 0.037.

Consider MICALL1 (UniProt Q8N3F8), for which the log2 fold change was inactive: -0.012.

Regarding MICALL2 (UniProt Q8IY33), the log2 fold change is inactive: -0.019.

Turning to MINDY3 (UniProt Q9H8M7), the log2 fold change is inactive: 0.017.

Consider MPP1 (UniProt Q00013), for which the log2 fold change is inactive: -0.019.

On to MON2 isoform 5 (UniProt Q7Z3U7), for which the log2 fold change was inactive: 0.012.

For MORF4L1 isoform 2 (UniProt Q9UBU8), the log2 fold change is inactive: -0.034.

In the case of MPC2 (UniProt O95563), the log2 fold change was inactive: -0.027.

As for MIOS (UniProt Q9NXC5), the log2 fold change is inactive: -0.009.

Consider MKRN2 (UniProt Q9H000), for which the log2 fold change is inactive: 0.013.

MMUT (UniProt P22033): the log2 fold change was inactive: 0.007.

Take MORC2 (UniProt Q9Y6X9): the log2 fold change is inactive: -0.001.

For MMAB (UniProt Q96EY8), the log2 fold change is inactive: 0.

MRPL19 (UniProt P49406): the log2 fold change is inactive: -0.021.

MRM3 (UniProt Q9HC36): the log2 fold change was inactive: 0.035.

For MORF4L2 (UniProt Q15014), the log2 fold change was inactive: -0.005.

Turning to MLXIP (UniProt Q9HAP2), the log2 fold change was inactive: -0.033.

On to MGST3 (UniProt O14880), for which the log2 fold change is inactive: -0.004.

On to MINPP1 (UniProt Q9UNW1), for which the log2 fold change was inactive: -0.011.

Take MOV10 (UniProt Q9HCE1): the log2 fold change is inactive: 0.003.

Compound in the next assay: CC1=C(C2=C(C=C1)C(=O)C3=CC=CC=C3N2CCCN)C
The description is as above. The essentials: as §1
Regarding MGST1 (UniProt P10620), the log2 fold change is inactive: -0.078.

Regarding MRI1 (UniProt Q9BV20), the log2 fold change was inactive: -0.018.

Consider MOB4 (UniProt Q9Y3A3), for which the log2 fold change was inactive: 0.019.

MKNK1 (UniProt Q9BUB5): the log2 fold change is inactive: -0.03.

With MIF4GD isoform 3 (UniProt A9UHW6), the log2 fold change is inactive: -0.049.

Consider MRPL1 (UniProt Q9BYD6), for which the log2 fold change was inactive: -0.053.

Regarding MLX (UniProt Q9UH92), the log2 fold change was inactive: -0.076.

Turning to MPI (UniProt P34949), the log2 fold change was inactive: -0.051.

On to MRGBP (UniProt Q9NV56), for which the log2 fold change is inactive: -0.079.

As to MMTAG2 (UniProt Q9BU76), the log2 fold change is inactive: -0.069.

MPZL1 (UniProt O95297): the log2 fold change was inactive: 0.003.

With MRPL23 (UniProt Q16540), the log2 fold change is inactive: -0.08.

MPST isoform 2 (UniProt P25325): the log2 fold change is inactive: -0.007.

For MRPL15 (UniProt Q9P015), the log2 fold change is inactive: -0.133.

With MICOS10 (UniProt Q5TGZ0), the log2 fold change is inactive: -0.031.

Regarding MIA2 (UniProt Q96PC5), the log2 fold change is inactive: -0.009.

As for MKI67 (UniProt P46013), the log2 fold change is inactive: -0.005.

Turning to MKRN1 (UniProt Q9UHC7), the log2 fold change is inactive: -0.021.

As for MRPL14 (UniProt Q6P1L8), the log2 fold change is inactive: -0.057.

As to MICALL1 (UniProt Q8N3F8), the log2 fold change is inactive: -0.011.

Turning to MICALL2 (UniProt Q8IY33), the log2 fold change was inactive: -0.004.

Regarding MINDY3 (UniProt Q9H8M7), the log2 fold change is inactive: 0.003.

Take MPP1 (UniProt Q00013): the log2 fold change was inactive: 0.018.

Take MON2 isoform 5 (UniProt Q7Z3U7): the log2 fold change is inactive: 0.002.

In the case of MORF4L1 isoform 2 (UniProt Q9UBU8), the log2 fold change was inactive: -0.089.

On to MPC2 (UniProt O95563), for which the log2 fold change is inactive: -0.057.

Regarding MIOS (UniProt Q9NXC5), the log2 fold change is inactive: 0.011.

Regarding MKRN2 (UniProt Q9H000), the log2 fold change is inactive: -0.025.

With MMUT (UniProt P22033), the log2 fold change was inactive: 0.021.

Consider MORC2 (UniProt Q9Y6X9), for which the log2 fold change is inactive: -0.026.

MMAB (UniProt Q96EY8): the log2 fold change was inactive: -0.073.

On to MRPL19 (UniProt P49406), for which the log2 fold change is inactive: 0.01.

Regarding MRM3 (UniProt Q9HC36), the log2 fold change is inactive: -0.004.

For the target MORF4L2 (UniProt Q15014), the log2 fold change was inactive: -0.026.

MLXIP (UniProt Q9HAP2): the log2 fold change is inactive: -0.015.

Take MGST3 (UniProt O14880): the log2 fold change was inactive: -0.03.

For MINPP1 (UniProt Q9UNW1), the log2 fold change was inactive: 0.042.

MOV10 (UniProt Q9HCE1): the log2 fold change was inactive: -0.046.
